No constants are given. Whether binding was seen depends on the method and setting. Tags and fused reporters may be left off the sequences shown.

By UniProt entry, the sequences of proteins in these tests, tags left out. Where a name states a change or a piece, a line headed by the entry shows the natural chain unless it says otherwise.
UniProt Q9M310: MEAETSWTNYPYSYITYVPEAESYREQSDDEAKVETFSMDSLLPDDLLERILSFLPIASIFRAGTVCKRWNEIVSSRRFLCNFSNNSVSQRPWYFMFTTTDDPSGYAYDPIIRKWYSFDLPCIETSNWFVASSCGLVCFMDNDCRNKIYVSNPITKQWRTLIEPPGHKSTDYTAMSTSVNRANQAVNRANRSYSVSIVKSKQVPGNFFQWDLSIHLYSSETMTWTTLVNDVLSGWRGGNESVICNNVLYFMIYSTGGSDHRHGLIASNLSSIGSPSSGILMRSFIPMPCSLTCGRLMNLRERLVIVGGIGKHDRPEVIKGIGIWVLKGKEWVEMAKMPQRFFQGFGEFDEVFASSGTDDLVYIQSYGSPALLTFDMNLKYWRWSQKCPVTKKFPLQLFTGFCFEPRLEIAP

Binding data for one molecule are collected here from doi:10.1101/123703.

The test concerns the target HWS, yeast two-hybrid fusion (Arabidopsis thaliana) (UniProt Q9M310). Put plainly: two-hybrid.

B1: full-length AGO1, yeast two-hybrid fusion (protein, UniProt O04379 1-1048)
chain: MVRKRRTDAPSEGGEGSGSREAGPVSGGGRGSQRGGFQQGGGQHQGGRGYTPQPQQGGRGGRGYGQPPQQQQQYGGPQEYQGRGRGGPPHQGGRGGYGGGRGGGPSSGPPQRQSVPELHQATSPTYQAVSSQPTLSEVSPTQVPEPTVLAQQFEQLSVEQGAPSQAIQPIPSSSKAFKFPMRPGKGQSGKRCIVKANHFFAELPDKDLHHYDVTITPEVTSRGVNRAVMKQLVDNYRDSHLGSRLPAYDGRKSLYTAGPLPFNSKEFRINLLDEEVGAGGQRREREFKVVIKLVARADLHHLGMFLEGKQSDAPQEALQVLDIVLRELPTSRYIPVGRSFYSPDIGKKQSLGDGLESWRGFYQSIRPTQMGLSLNIDMSSTAFIEANPVIQFVCDLLNRDISSRPLSDADRVKIKKALRGVKVEVTHRGNMRRKYRISGLTAVATRELTFPVDERNTQKSVVEYFHETYGFRIQHTQLPCLQVGNSNRPNYLPMEVCKIVEGQRYSKRLNERQITALLKVTCQRPIDREKDILQTVQLNDYAKDNYAQEFGIKISTSLASVEARILPPPWLKYHESGREGTCLPQVGQWNMMNKKMINGGTVNNWICINFSRQVQDNLARTFCQELAQMCYVSGMAFNPEPVLPPVSARPEQVEKVLKTRYHDATSKLSQGKEIDLLIVILPDNNGSLYGDLKRICETELGIVSQCCLTKHVFKMSKQYMANVALKINVKVGGRNTVLVDALSRRIPLVSDRPTIIFGADVTHPHPGEDSSPSIAAVVASQDWPEITKYAGLVCAQAHRQELIQDLFKEWKDPQKGVVTGGMIKELLIAFRRSTGHKPLRIIFYRDGVSEGQFYQVLLYELDAIRKACASLEAGYQPPVTFVVVQKRHHTRLFAQNHNDRHSVDRSGNILPGTVVDSKICHPTEFDFYLCSHAGIQGTSRPAHYHVLWDENNFTADGLQSLTNNLCYTYARCTRSVSIVPPAYYAHLAAFRARFYMEPETSDSGSMASGSMARGGGMAGRSTRGPNVNAAVRPLPALKENVKRVMFYC
B1: the binding result is reported as “no binding”.
